{
  "source": "patent US12533389B2",
  "about": "“Glycopeptide antibiotic combination therapy” (The Trustees of Princeton University, priority 2021, dated 2026)",
  "origin": "cited, not measured here",
  "system": "C. difficile infection",
  "settings": "treatment of C. difficile infection; cited from earlier work",
  "note": "Some of these results come from one statement about several compounds together.",
  "data": [
    {"compound": "CN[C@H](CC(C)C)C(=O)N[C@H]1C(=O)N[C@@H](CC(N)=O)C(=O)N[C@H]2C(=O)N[C@H]3C(=O)N[C@H](C(=O)N[C@H](C(=O)O)c4cc(O)cc(O)c4-c4cc3ccc4O)[C@H](O)c3ccc(c(Cl)c3)Oc3cc2cc(c3O[C@@H]2O[C@H](CO)[C@@H](O)[C@H](O)[C@H]2O[C@H]2C[C@](C)(N)[C@H](O)[C@H](C)O2)Oc2ccc(cc2Cl)[C@H]1O", "note": "[vancomycin]", "values": [
      {"measurement": "disease recurrence", "value": "20-30 % of cases"}
    ]}
  ]
}
